Screen size: about 140,000 compounds; about 4,300 (3.1%) were called active. The shares of active, inactive and inconclusive entries below differ from those in the screen.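 Rule for the calls: active = readout at or below -70, meaning at least 70% loss of cells showing the perinucleolar compartment, a nuclear body marking cancer cells; inconclusive = readout between -30 and a set limit; inactive = the rest.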
assay: High Content Assay for Compounds that inhibit the Assembly of the Perinucleolar Compartment; conditions: PC3M PTB-GFP, PNC prevalence imaging, 16 h; at 10 µM; active compounds read low;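 note: plate controls were DMSO wells for no effect and camptothecin positive control wells for full effect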
Summary of the method: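 PC3M cells stably expressing PTB-GFP, 750–1000 cells/well, treated 16 h at 37 °C with compound (23 nl of library stock), in duplicate. After paraformaldehyde fixation and Hoechst stain, imaged at 20x; PNC prevalence scored by image analysis.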

| SMILES | activity change (PNC), negative = inhibition |
| --- | --- |
| Cc1cc(C)c(NC(=O)CS(=O)CC(=O)N2CCN(c3ccccc3)CC2)c(C)c1 (stereo not drawn) | inconclusive: -36.1% |
| Cc1cccc(C)c1OCc1nc2ccccc2c(=O)n1/N=C/c1ccc(OCC(=O)O)cc1 | inactive: -26.4% |
| COC(=O)c1cc(N=CC2=C(O)CC(C)(C)CC2=O)cc(C(=O)OC)c1 | inactive: 43.9% |
| COc1cc(NC(=O)c2ccc(S(=O)(=O)N(C)C)cc2)cc(OC)c1OC | inconclusive: -78.8% |
| Cc1cc(C(=O)N/N=C2\CCCC(=O)C2)c2ccccc2n1 | inactive: -18.8% |
| CN(c1ccc(OCC(=O)OCC(=O)Nc2ccccc2)cc1)S(=O)(=O)c1ccc(F)cc1 | inconclusive: -47.3% |
| COc1cc(OC)nc(NC(=O)COC(=O)C2CCCCC2)n1 | inconclusive: -63.6% |
| Cc1ccc2[nH]c3c(NCCN4CCOCC4)ncnc3c2c1 | active: -84.3% |
| CCc1c(C)nc2ncnn2c1N1CCCC(C(=O)Nc2ccc(NC(C)=O)cc2)C1 (stereo not drawn) | inactive: 6.47% |
| COCc1cc(C)nc(Nc2ccccc2C)c1C#N | inconclusive: -37.2% |
| O=C(Nc1nnc(COc2ccc(F)cc2)s1)c1cccs1 | inconclusive: -35% |
| Cc1cc(=O)oc2cc(OCC(=O)OCc3nnc(-c4ccccc4)o3)ccc12 | active: -85.6% |
| Cc1c(C(=O)OCC(=O)NCCN2C(=O)CSC2=O)oc2c1ccc1ccccc12 | inconclusive: -37.2% |
| CC(C)c1cc(C(=O)NNC(=S)NCc2ccco2)c(O)c(C(C)C)c1 | inactive: 17.7% |
| CC12CC(NC(=O)N1c1ccc(C(=O)N3CCN(c4ccc(F)cc4)CC3)cc1)c1ccccc1O2 (stereo not drawn) | inconclusive: -36.5% |
| COc1cccc(-n2nnc3c(=O)n(Cc4ccc(F)cc4)cnc32)c1 | inactive: 31.4% |
| COc1ccccc1NC(=O)COc1ccc(/C=N/NC(=O)CSCc2cc(C)cc(C)c2)cc1 | inconclusive: -41.8% |
| Cc1ccc(Cl)cc1N1CCN(C(=O)CCS(=O)(=O)c2cccc3nonc23)CC1 | inconclusive: -43.2% |
| CCN(CC)c1nc2c(s1)C(=O)NCCC2 | inactive: 2.64% |
| C=CCOc1c(CNc2ncn[nH]2)cccc1OC | inconclusive: -38.5% |
| O=C(Oc1ccc(OC(=O)c2ccco2)c(S(=O)(=O)c2ccc(Cl)cc2)c1)c1ccco1 | inconclusive: -74.3% |
| Cc1cc(N)n(-c2ncnc3scc(-c4ccc(Cl)cc4)c23)n1 | inactive: 41.4% |

Taken from above:
Entry for Cc1ccc(Cl)cc1N1CCN(C(=O)CCS(=O)(=O)c2cccc3nonc23)CC1 under activity change (PNC), negative = inhibition: inconclusive: -43.2%
Entry for Cc1cc(C(=O)N/N=C2\CCCC(=O)C2)c2ccccc2n1 under activity change (PNC), negative = inhibition: inactive: -18.8%

Next entries follow:

| SMILES | activity change (PNC), negative = inhibition |
| --- | --- |
| Cc1ccc(NC(=O)CN(C)C(=O)Cn2cc(C(F)(F)F)ccc2=O)cc1 | active: -80.1% |
| CC(C)(C)C(=O)NCCN1C(=O)S/C(=C\c2ccc([N+](=O)[O-])cc2)C1=O | inconclusive: -38.3% |
| CCN(CC)S(=O)(=O)c1ccc(C)c(NC(=S)Nc2cccc(S(=O)(=O)N3CCCCCC3)c2)c1 | inconclusive: -52.9% |
| CC1=CC(C)(C)NC(=S)N1c1cccc(C)c1 | inconclusive: -31.2% |
| COc1ccc(N(CC(O)CN2C(=O)NC(C)(C)C2=O)S(=O)(=O)c2ccc(C)cc2)cc1 (stereo not drawn) | inconclusive: -41.3% |
| O=C(CN1CCN(c2ccccn2)CC1)Nc1cc(C(F)(F)F)ccc1Cl | inconclusive: -33.3% |
| COC(=O)c1ccc(C(=O)OC)c(NC(=O)CSc2ccccn2)c1 | inconclusive: -37.1% |
| FC(F)(F)c1ccc(Oc2ccc3c(C(F)(F)F)cc(C(F)(F)F)nc3n2)cc1 | inconclusive: -43.2% |
| COc1ccccc1/C=N/n1cnnc1 | inconclusive: -62.6% |
| COc1cc2cc(C(c3nnnn3C(C)(C)C)N3CCc4ccccc4C3)c(=O)[nH]c2cc1OC (stereo not drawn) | inconclusive: -50.2% |
| CCn1c2ccc(C)cc2c2nc3cc(C(=O)O)ccc3nc21 | inactive: 2.61% |
| CCCOc1ccc(N2C(=O)CC(N3CCOCC3)C2=O)cc1 (stereo not drawn) | inconclusive: -46.6% |
| O=S(=O)(c1ccc(N2CCN(S(=O)(=O)c3ccc4c(c3)OCCO4)CC2)nc1)N1CCCC1 | inconclusive: -53.1% |
| Cc1cccc(NC(=O)C2(c3ccccc3)CC2(Cl)Cl)c1 (stereo not drawn) | inconclusive: -42.6% |
| O=C(COc1cccc(NC(=O)c2cccc([N+](=O)[O-])c2)c1)c1ccc(F)cc1 | inconclusive: -50.2% |
| Cc1ccc(-c2[nH]c(-c3ccc(Cl)cc3)nc2SCC(=O)NCC2CCCO2)cc1 (stereo not drawn) | inactive: 21.3% |
| COc1nnnc2c1sc1nc(N3CCOCC3)c3c(c12)CC(C)(C)OC3 | inactive: 11.4% |
| CCOC(=O)N1CCN(Cc2c(F)cccc2F)CC1 | inactive: 27.6% |
| N#CC(c1ccc(O)cc1)N1CCCCC1 (stereo not drawn) | inactive: 64% |
| COc1ccc(NS(=O)(=O)c2ccc3nc(COc4ccc(C#N)cc4)[nH]c3c2)cc1 | inconclusive: -69.4% |
| CC(NS(=O)(=O)c1ccc(OCC(=O)N2CCOCC2)cc1)c1ccccc1 (stereo not drawn) | inconclusive: -58.4% |
| CCc1ccc(NC(=O)CS(=O)CC(=O)NC(C)CCc2ccco2)cc1 (stereo not drawn) | inconclusive: -44% |

| SMILES | activity change (PNC), negative = inhibition |
| --- | --- |
| S=C(Nc1ccccc1)c1nc2ccccc2s1 | inactive: 17.8% |
| CCOc1cc(NC(=S)NCC(C)C)c(OCC)cc1NC(=O)c1ccco1 | inconclusive: -43.6% |
| COc1cc(/C=N/NC(=O)c2cnccn2)ccc1O | inconclusive: -38% |
| COc1ccc(NC(=O)C(c2cc3c(cc2[N+](=O)[O-])OCO3)N2CCN(C=O)CC2)cc1 (stereo not drawn) | inconclusive: -58.2% |
| Cn1cccc1C(=O)NC(=O)COC(=O)C12CC3CC(CC(O)(C3)C1)C2 | inconclusive: -73.5% |
| COC(=O)C1=C(C(=O)OC)C2(OC1c1ccc(Br)cc1)C(=O)c1ccccc1C2=O (stereo not drawn) | active: -100% |
| CCN1C(=O)/C(=C2\C=Cc3cc(C)ccc3N2CC)OC1=S | inconclusive: -33.5% |
| COC(=O)CSc1nnc(-c2ccc(S(=O)(=O)N3CCCC3)cc2)n1C | inconclusive: -37.8% |
| CCSc1nnc(NC(=O)c2csc3c2CCC(C)C3)s1 (stereo not drawn) | inactive: -28.4% |
| CCCOc1ccc(N2C(=O)CC(N3CCN(S(=O)(=O)c4ccccc4)CC3)C2=O)cc1 (stereo not drawn) | inactive: 2.94% |
| Cc1c(Cl)cccc1NC(=O)CNc1cccc(C(F)(F)F)c1 | inconclusive: -35.3% |
| Cc1nc2ccccc2c(=O)n1CCCn1ccnc1 | active: -81.9% |
| COC(=O)c1ccc(COC(=O)c2ccc(CO)cc2)o1 | inactive: 8.06% |
| Cc1ccc2nc3ccc(N4CCN(C)CC4)nn3c(=O)c2c1 | inactive: -17.8% |
| COc1ccc(C(=O)NCCSCc2ccc(C)cc2)cc1 | inactive: -13.1% |
| Cc1c(NC(=O)Nc2ccc(Cl)c(Cl)c2)c(=O)n(-c2ccccc2)n1C | inconclusive: -63.9% |
| CSc1nc(C)c2c(n1)N(c1ccc(C(C)C)cc1)CC2 | inconclusive: -53.7% |
| CCOC(=O)N1CCN(C(=O)c2cc3sccc3n2C)CC1 | inconclusive: -49.2% |
| COc1ccccc1C(N)=S | inconclusive: -34.1% |
| CCn1cc(C(=O)NCc2ccco2)c(=O)c2cc(F)c(N3CCN(C(=O)c4ccco4)CC3)cc21 | inconclusive: -40.3% |
| N#Cc1c(N)[nH]c(=S)c(C#N)c1-c1ccccc1 | inactive: 15.5% |
| Cc1cc(C)c2c(=O)[nH]c(SCC(=O)Nc3ccccc3)nc2n1 | inconclusive: -53.8% |

| SMILES | activity change (PNC), negative = inhibition |
| --- | --- |
| CC(=O)Nc1nc2ccc(-c3nc4ccccc4o3)cc2s1 | inactive: 86.8% |
| COC(=O)N/N=C(\C)c1ccc(OC(F)F)cc1OC(F)F | inconclusive: -36.1% |
| CS(=O)(=O)N1CCC(C(=O)NCc2ccco2)CC1 | inconclusive: -50.2% |
| Cc1noc(C)c1S(=O)(=O)N1CCN(C(c2ccccc2)c2ccc(Cl)cc2)CC1 (stereo not drawn) | active: -89.9% |
| COc1ccc(-c2nnn(CC(=O)NCc3cccs3)n2)cc1OC | inactive: -0.164% |
| CCOC(=O)n1c(=O)oc2cc(S(=O)(=O)N3CCCCC3)ccc21 | active: -100% |
| Cc1ccc2cccc(Oc3ccc([N+](=O)[O-])cc3[N+](=O)[O-])c2n1 | inconclusive: -33.4% |
| Cc1ccc(CC(=O)N2CCC(c3nc4c(nnn4Cc4ccccc4)c(=O)[nH]3)CC2)cc1 | inactive: 14.6% |
| CSc1nnc(-c2cccc(C)c2)n1N | inconclusive: -33.4% |
| Cc1nc2c(C(=O)O)cnn2c(C)c1Cc1ccccc1F | inactive: -4.85% |
| O=S(=O)(c1ccc(F)cc1)c1nc(-c2ccco2)oc1Nc1ccccc1 | inconclusive: -61% |
| COc1ccc(NC(C#N)c2ccc(OC)cc2)cc1 (stereo not drawn) | inconclusive: -46.5% |
| CCN(CC)c1ccc(C=C2C(=O)OC3(CCCC3)OC2=O)cc1 | inconclusive: -46.5% |
| Cc1ccc2oc(=O)c3cnn(CC(=O)NCCC(C)C)c3c2c1 | inconclusive: -38.8% |
| CCOc1ccc(-n2c(N)c(-c3nc4ccccc4[nH]3)sc2=S)cc1 | inconclusive: -30.7% |
| Cc1cc(Br)c2nc3c(c(C(=O)O)c2c1)CCCCC3 | inconclusive: -33.7% |
| O=C(Nc1ccc(Cl)cc1)/C(=C/c1cccc(O)c1)c1nc2ccccc2s1 | inconclusive: -60.5% |
| Cc1ccccc1NC(=O)Cc1nnc(SCC(=O)N2CCN(c3ccccc3)CC2)n1C | inconclusive: -76.3% |
| Cc1ccc(NS(=O)(=O)c2ccc(OCC(=O)NCc3ccncc3)cc2)cc1 | inconclusive: -78.8% |
| COc1cc(OC)cc(C(=O)Nc2ccc(S(=O)(=O)N(C)C)cc2)c1 | inconclusive: -41.3% |
| COc1cc(C(=O)n2nc(C)cc2C)ccc1O | inconclusive: -44.1% |
| O=C(Cn1c2ccccc2c(=O)c2ccccc21)N/N=C/c1ccc(N2CCCC2)c([N+](=O)[O-])c1 | inconclusive: -38.3% |

Retrieved by structure from the list above, 2 records:

| SMILES | activity change (PNC), negative = inhibition |
| --- | --- |
| CS(=O)(=O)N1CCC(C(=O)NCc2ccco2)CC1 | inconclusive: -50.2% |
| O=C(Cn1c2ccccc2c(=O)c2ccccc21)N/N=C/c1ccc(N2CCCC2)c([N+](=O)[O-])c1 | inconclusive: -38.3% |
